# Results deposited as PubChem BioAssay AID493246 (Drosophila RNAi Screening Center, 2011).
# Screen: 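Genome-wide search for dsRNAs that reduce cell number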 (primary screen)
# Cells: Drosophila Kc and S2R+ cells
# Knock-down reagent: long dsRNA against Drosophila genes
# Measurement: 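Cell number per well after knock-down, printed as raw plate values; calls were based on per-plate z-scores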
# Reading the numbers: Kc cell number and S2R+ cell number: higher = more cells remaining
# Hit rule: 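Active when the per-plate z-score of cell number is 3 or more in the direction of fewer cells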
# In all, the deposit lists about 21,000 reagents; shown is a random part of those with a known target gene and a result. In the full data, 429 (2%) were called active. 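Values are raw and not normalised between plates; calls rest on per-plate z-scores that were not deposited.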 Names joined by + are all predicted targets of the reagent. No sequences are given here. The record does not give: the amount of reagent, the time to read-out.
target gene,dsRNA,"Kc cell number, rep 1","Kc cell number, rep 2","S2R+ cell number, rep 1","S2R+ cell number, rep 2",Outcome
CG33635,DRSC00006,1.62e6,1.66e6,1.03e6,1.10e6,inactive
mst,DRSC20582,1.54e6,1.48e6,1.05e6,1.17e6,inactive
Abl,DRSC09661,1.44e6,1.54e6,1.21e6,1.31e6,inactive
mRpL46,DRSC08391,1.54e6,1.54e6,8.20e5,1.06e6,inactive
Spn55B,DRSC07694,1.33e6,1.35e6,1.06e6,1.22e6,inactive
shf,DRSC18283,1.62e6,1.52e6,1.03e6,1.15e6,inactive
Vml,DRSC17695,1.11e6,1.39e6,1.08e6,1.02e6,inactive
Vml,DRSC18529,1.39e6,1.69e6,1.07e6,1.19e6,inactive
CG7384,DRSC03053,1.35e6,1.25e6,1.00e6,1.11e6,inactive
Grp170,DRSC18524,5.25e5,,8.86e5,,inactive
RpS7,DRSC15394,9.31e5,9.89e5,7.32e5,8.35e5,active
Gbs-70E,DRSC11055,1.36e6,1.45e6,1.21e6,1.29e6,inactive
bumpel,DRSC16100,1.49e6,1.61e6,1.33e6,1.43e6,inactive
Pgant35A,DRSC03557,1.50e6,1.48e6,1.12e6,1.20e6,inactive
lmd,DRSC15618,1.47e6,1.61e6,1.16e6,1.19e6,inactive
CG12347,DRSC14502,1.53e6,1.50e6,1.06e6,1.15e6,inactive
BORCS7 + CG13430,DRSC06392,1.44e6,1.46e6,1.30e6,1.31e6,inactive
BORCS7 + CG13430,DRSC06707,1.59e6,1.41e6,9.71e5,1.24e6,inactive
CG15760,DRSC19725,1.67e6,1.58e6,1.16e6,1.32e6,inactive
Gbs-76A,DRSC11081,1.65e6,1.64e6,1.51e6,1.60e6,inactive
SiaT,DRSC04494,1.60e6,1.66e6,1.34e6,1.49e6,inactive
Grip163,DRSC10538,1.36e6,1.52e6,1.25e6,1.32e6,inactive
h-cup,DRSC15973,1.60e6,1.67e6,1.38e6,1.47e6,inactive
CR11235,DRSC20480,1.60e6,1.58e6,1.07e6,1.25e6,inactive
hfp,DRSC08731,9.23e5,9.81e5,7.79e5,1.01e6,inactive
hfp,DRSC08732,1.47e6,1.24e6,9.42e5,1.19e6,inactive
VAChT,DRSC13311,1.48e6,1.55e6,1.09e6,1.24e6,inactive
VAChT,DRSC16608,1.57e6,1.59e6,1.17e6,1.22e6,inactive
Parp1,DRSC07725,5.34e5,,7.71e5,,inactive
Parp1,DRSC07778,1.56e6,1.43e6,1.05e6,1.34e6,inactive
Parp1,DRSC07780,1.66e6,1.60e6,1.06e6,1.30e6,inactive
FoxP,DRSC15159,1.71e6,1.80e6,1.20e6,1.32e6,inactive
CG42685,DRSC01971,1.44e6,1.66e6,1.02e6,1.17e6,inactive
CG32815,DRSC18177,1.66e6,1.68e6,1.06e6,1.23e6,inactive
PGRP-SA,DRSC19420,1.51e6,1.48e6,1.01e6,1.11e6,inactive
CG8407,DRSC07167,1.85e6,1.79e6,1.43e6,1.56e6,inactive
Corp,DRSC17771,5.76e5,,9.25e5,,inactive
CG10365,DRSC14234,1.57e6,1.56e6,9.72e5,1.08e6,inactive
CG11593,DRSC08206,1.34e6,1.39e6,9.68e5,1.14e6,inactive

Active calls (from the list above):
target gene,dsRNA,"Kc cell number, rep 1","Kc cell number, rep 2","S2R+ cell number, rep 1","S2R+ cell number, rep 2",Outcome
RpS7,DRSC15394,9.31e5,9.89e5,7.32e5,8.35e5,active

Next results follow.
target gene,dsRNA,"Kc cell number, rep 1","Kc cell number, rep 2","S2R+ cell number, rep 1","S2R+ cell number, rep 2",Outcome
CG5002,DRSC06911,1.54e6,1.66e6,1.19e6,1.04e6,inactive
CG5938,DRSC15923,5.86e5,,8.70e5,,inactive
CG7049,DRSC08587,1.40e6,1.47e6,1.22e6,1.22e6,inactive
Kaz,DRSC14637,1.63e6,1.56e6,1.03e6,1.12e6,inactive
Gr28a,DRSC02290,1.56e6,1.47e6,1.20e6,1.38e6,inactive
nAChRalpha1,DRSC13664,1.07e6,1.30e6,1.10e6,1.04e6,inactive
nAChRalpha1,DRSC13670,1.25e6,1.20e6,6.68e5,7.25e5,active
nAChRalpha1,DRSC13672,1.35e6,1.55e6,1.14e6,8.75e5,inactive
nAChRalpha1,DRSC17008,1.60e6,1.83e6,1.02e6,1.16e6,inactive
CG32507,DRSC20421,1.63e6,1.79e6,1.03e6,1.15e6,inactive
Cpr11B,DRSC19859,5.34e5,,8.22e5,,inactive
Bap60,DRSC19337,4.67e5,,9.57e5,,inactive
CG14551,DRSC14894,1.45e6,1.63e6,1.06e6,1.17e6,inactive
CG17290,DRSC06662,1.64e6,1.62e6,1.26e6,1.39e6,inactive
CG9062,DRSC07327,1.57e6,1.57e6,1.25e6,1.28e6,inactive
mRpL32,DRSC14479,1.52e6,1.47e6,9.54e5,1.09e6,inactive
TwdlF,DRSC12225,1.58e6,1.59e6,1.24e6,1.33e6,inactive
CG15764,DRSC18070,1.60e6,1.55e6,1.11e6,1.22e6,inactive
CG7006,DRSC16169,1.53e6,1.53e6,1.27e6,1.29e6,inactive
phtm,DRSC20237,1.51e6,1.56e6,9.06e5,1.02e6,inactive
